log2 fold change data for 40 targets are collected here from the supplement of paper PMC10849652.

Protein sequences, listed by entry. Tags and fused reporters are not part of them. Lines headed by an entry give the natural chain unless they say otherwise; changes in a name come on top.
UniProt Q9HBU6: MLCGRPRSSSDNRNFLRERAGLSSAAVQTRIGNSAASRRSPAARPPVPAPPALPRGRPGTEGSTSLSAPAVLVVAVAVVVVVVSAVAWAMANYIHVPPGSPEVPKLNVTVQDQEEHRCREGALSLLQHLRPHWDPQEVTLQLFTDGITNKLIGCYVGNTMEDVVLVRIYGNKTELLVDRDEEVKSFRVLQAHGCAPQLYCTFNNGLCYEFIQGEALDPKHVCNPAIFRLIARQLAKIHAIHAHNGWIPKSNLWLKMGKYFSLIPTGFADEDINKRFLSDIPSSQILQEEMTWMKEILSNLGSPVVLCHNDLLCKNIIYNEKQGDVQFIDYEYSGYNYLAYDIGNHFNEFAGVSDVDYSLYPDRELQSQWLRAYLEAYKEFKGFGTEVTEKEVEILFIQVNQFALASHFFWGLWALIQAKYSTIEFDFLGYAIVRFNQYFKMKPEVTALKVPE
UniProt Q96A26: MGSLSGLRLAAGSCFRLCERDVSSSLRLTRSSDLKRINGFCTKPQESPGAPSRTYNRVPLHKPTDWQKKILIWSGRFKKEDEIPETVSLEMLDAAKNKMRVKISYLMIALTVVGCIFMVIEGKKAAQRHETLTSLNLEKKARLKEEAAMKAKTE
UniProt P12259: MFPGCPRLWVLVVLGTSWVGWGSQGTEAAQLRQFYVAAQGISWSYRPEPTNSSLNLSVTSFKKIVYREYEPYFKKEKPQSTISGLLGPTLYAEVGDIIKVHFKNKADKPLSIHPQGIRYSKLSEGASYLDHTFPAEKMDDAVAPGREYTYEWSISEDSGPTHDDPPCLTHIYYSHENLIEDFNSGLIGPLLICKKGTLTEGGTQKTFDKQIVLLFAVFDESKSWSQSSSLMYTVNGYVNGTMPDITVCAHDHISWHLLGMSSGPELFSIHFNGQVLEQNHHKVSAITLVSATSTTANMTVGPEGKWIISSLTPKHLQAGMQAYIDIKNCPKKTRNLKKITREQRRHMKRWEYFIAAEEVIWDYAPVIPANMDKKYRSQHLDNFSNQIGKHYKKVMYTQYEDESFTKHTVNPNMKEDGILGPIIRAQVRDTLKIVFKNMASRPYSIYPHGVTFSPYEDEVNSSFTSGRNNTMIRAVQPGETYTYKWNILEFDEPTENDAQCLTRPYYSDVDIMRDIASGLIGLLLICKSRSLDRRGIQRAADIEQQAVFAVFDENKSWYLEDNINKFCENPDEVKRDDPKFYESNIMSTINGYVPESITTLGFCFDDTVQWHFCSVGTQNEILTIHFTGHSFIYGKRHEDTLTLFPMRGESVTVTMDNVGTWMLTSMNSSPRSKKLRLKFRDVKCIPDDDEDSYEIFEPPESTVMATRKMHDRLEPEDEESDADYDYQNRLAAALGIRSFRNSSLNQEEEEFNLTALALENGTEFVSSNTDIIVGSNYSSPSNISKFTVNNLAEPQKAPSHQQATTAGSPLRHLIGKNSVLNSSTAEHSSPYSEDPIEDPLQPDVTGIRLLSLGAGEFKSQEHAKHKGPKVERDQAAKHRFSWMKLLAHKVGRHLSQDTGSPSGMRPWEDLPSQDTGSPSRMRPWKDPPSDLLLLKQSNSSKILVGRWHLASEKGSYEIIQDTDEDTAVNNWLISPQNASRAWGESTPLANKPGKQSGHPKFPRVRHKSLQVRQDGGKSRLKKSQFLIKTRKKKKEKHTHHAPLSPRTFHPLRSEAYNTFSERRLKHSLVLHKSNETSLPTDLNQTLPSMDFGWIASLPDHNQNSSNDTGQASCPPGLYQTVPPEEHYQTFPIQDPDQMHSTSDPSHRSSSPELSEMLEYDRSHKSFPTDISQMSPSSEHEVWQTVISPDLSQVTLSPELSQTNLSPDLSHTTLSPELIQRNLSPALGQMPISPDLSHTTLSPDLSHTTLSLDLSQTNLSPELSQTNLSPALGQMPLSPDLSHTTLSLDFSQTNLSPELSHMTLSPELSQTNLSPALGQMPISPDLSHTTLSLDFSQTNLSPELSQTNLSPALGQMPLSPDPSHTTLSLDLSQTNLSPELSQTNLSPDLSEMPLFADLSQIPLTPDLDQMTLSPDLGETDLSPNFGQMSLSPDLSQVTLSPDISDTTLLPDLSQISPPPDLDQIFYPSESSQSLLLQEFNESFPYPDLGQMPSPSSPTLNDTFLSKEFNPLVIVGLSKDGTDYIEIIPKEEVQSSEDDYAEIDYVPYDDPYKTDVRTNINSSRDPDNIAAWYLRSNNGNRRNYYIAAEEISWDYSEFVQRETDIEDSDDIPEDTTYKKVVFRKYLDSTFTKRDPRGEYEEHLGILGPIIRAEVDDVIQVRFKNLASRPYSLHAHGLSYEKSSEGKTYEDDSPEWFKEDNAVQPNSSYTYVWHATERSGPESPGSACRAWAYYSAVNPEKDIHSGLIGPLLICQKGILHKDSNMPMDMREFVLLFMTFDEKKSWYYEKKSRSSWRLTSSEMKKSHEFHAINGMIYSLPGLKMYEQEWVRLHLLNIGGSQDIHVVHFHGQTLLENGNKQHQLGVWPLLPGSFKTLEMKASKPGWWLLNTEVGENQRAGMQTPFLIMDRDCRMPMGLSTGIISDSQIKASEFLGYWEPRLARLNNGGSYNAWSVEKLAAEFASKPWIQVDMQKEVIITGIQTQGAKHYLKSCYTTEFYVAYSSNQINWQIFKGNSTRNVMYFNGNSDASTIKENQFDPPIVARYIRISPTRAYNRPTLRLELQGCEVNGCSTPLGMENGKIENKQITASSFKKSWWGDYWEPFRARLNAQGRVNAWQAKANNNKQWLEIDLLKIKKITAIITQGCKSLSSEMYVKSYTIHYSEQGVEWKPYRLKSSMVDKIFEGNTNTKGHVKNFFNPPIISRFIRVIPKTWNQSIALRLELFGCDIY
UniProt Q96E09: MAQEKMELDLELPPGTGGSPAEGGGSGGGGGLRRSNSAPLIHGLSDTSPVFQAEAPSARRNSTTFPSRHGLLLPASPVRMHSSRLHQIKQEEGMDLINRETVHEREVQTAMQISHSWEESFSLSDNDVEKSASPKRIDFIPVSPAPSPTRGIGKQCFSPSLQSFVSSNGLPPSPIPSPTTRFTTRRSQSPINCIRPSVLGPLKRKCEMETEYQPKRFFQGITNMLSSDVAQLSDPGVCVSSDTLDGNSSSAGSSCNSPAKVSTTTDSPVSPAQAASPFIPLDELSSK
UniProt Q9NRY5: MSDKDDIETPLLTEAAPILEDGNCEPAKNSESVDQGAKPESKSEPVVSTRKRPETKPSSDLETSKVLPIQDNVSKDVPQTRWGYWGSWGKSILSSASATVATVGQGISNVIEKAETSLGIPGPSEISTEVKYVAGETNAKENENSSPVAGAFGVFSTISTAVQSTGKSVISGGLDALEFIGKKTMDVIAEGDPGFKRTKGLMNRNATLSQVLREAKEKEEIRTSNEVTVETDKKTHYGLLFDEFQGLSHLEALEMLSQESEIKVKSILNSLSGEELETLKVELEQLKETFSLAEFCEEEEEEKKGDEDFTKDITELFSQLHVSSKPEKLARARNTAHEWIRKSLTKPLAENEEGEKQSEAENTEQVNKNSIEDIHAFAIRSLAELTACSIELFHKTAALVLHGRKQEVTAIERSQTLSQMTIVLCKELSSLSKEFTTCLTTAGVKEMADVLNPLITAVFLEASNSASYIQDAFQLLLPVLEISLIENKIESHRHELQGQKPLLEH
UniProt Q9BSJ8: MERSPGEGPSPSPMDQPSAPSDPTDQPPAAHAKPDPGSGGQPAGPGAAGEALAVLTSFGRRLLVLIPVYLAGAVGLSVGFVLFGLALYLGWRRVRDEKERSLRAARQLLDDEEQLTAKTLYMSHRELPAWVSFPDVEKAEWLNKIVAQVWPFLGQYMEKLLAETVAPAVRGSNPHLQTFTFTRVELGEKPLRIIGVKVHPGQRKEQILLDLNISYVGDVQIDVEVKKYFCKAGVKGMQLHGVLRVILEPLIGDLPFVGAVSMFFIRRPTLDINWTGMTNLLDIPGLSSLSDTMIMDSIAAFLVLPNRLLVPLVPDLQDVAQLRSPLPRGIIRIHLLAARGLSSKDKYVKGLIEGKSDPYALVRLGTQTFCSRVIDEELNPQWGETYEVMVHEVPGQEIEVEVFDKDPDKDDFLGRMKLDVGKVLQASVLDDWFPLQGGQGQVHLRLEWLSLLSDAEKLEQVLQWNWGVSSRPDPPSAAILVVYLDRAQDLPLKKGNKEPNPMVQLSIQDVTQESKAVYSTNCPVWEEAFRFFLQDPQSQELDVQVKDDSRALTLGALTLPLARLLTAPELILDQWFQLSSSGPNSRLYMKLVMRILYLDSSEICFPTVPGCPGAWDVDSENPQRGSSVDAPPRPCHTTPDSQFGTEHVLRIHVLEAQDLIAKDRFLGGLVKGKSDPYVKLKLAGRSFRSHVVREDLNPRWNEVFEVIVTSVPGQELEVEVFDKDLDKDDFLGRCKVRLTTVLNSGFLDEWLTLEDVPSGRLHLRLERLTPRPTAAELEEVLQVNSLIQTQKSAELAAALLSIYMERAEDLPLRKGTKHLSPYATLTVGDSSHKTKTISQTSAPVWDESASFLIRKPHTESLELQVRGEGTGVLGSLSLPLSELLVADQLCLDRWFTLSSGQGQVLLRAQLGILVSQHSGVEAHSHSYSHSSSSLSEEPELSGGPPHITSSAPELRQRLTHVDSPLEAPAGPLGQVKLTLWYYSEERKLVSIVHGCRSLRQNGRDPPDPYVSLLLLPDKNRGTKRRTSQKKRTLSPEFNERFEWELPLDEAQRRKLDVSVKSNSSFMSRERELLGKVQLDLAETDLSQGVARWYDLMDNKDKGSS
UniProt Q9NUQ9: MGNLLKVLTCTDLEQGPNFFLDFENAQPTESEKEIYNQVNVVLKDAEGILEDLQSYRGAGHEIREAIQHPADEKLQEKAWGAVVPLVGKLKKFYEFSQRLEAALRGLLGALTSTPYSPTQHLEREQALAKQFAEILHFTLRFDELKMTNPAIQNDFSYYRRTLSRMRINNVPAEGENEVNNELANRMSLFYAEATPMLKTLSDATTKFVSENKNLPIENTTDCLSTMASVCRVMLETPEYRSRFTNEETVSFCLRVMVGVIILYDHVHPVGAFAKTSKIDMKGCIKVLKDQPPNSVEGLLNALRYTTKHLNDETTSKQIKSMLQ
UniProt Q01469, whole entry, looked up: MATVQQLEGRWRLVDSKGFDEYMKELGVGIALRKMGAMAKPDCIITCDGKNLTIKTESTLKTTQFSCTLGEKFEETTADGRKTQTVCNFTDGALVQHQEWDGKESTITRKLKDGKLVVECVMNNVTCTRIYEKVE
UniProt Q9H4H8: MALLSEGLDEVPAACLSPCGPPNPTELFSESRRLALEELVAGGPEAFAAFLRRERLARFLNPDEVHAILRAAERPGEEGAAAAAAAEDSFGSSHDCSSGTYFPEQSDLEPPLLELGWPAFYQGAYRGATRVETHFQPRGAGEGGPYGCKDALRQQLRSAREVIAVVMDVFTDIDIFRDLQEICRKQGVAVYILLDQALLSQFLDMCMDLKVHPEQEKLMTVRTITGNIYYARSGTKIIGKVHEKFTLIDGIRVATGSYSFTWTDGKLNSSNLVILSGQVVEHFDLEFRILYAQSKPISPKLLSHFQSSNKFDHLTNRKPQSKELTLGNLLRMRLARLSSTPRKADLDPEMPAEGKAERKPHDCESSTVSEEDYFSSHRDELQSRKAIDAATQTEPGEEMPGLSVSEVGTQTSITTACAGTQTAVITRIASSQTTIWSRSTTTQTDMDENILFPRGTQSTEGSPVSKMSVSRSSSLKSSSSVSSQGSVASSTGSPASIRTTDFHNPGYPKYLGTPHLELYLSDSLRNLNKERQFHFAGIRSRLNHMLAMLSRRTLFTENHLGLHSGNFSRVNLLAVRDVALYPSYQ
UniProt Q14320: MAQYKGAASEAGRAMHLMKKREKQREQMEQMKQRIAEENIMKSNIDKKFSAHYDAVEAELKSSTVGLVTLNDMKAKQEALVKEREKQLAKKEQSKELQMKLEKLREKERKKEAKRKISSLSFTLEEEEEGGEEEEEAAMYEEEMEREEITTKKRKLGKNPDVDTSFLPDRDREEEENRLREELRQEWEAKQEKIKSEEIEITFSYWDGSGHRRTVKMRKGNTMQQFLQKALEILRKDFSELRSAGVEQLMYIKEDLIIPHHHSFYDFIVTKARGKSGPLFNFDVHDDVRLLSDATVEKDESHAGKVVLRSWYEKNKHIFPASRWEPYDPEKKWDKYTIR
UniProt Q96KR6: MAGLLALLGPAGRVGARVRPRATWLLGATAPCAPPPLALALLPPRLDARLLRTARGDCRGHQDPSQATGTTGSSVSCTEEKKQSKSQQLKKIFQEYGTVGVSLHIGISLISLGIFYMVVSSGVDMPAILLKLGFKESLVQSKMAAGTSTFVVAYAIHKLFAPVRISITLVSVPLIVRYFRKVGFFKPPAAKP
UniProt Q5RKV6, whole entry, looked up: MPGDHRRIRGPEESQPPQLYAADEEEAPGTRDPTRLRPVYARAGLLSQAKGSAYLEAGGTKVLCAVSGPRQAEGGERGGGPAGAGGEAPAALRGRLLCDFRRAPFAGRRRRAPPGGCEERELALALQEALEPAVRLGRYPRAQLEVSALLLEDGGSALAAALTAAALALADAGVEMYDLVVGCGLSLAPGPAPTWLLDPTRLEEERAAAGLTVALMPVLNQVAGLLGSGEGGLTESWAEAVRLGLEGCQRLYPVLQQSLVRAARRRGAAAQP

The other results are listed elsewhere or left out.

Compound in one experiment: Cc1ccc(NC(=O)c2ccc(CN3CC[C@H](N(C)C)C3)c(C(F)(F)F)c2)cc1Nc1nccc(-c2cncnc2)n1 [bafetinib]
Description: log2 fold change, soluble protein after heating vs DMSO (PISA); higher = thermal stabilisation; K562 lysate, 10 uM; active = over 0.2 and 3.5 SD of the protein, either way, in both replicates (recomputed). The method in brief: (§1)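 Soluble protein was defined as the supernatant remaining after 21,000xg for 90 min, following pooling of heated aliquots and adjustment to 0.5% NP-40 at 4°C. Before that, crude K562 extract at 1 mg/mL protein in PBS pH 7.4 with 1 mM MgCl2 was treated with 10 μM compound for 30 min and heated for 3 min across 48°C-58°C. Quantification used TMTpro 16plex LC-MS/MS with channel sums equalised, and values are log-two fold changes in thermal stability relative to solvent controls from duplicates.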
On to ETNK1 (UniProt Q9HBU6), for which the log2 fold change was inactive: -0.035.

As for FAM83A (UniProt Q86UY5), the log2 fold change was inactive: -0.053.

FADS3 (UniProt Q9Y5Q0): the log2 fold change is inactive: -0.131.

On to EXOC2 (UniProt Q96KP1), for which the log2 fold change was inactive: -0.056.

On to FAM120A isoform 6 (UniProt Q9NZB2), for which the log2 fold change was inactive: 0.01.

Turning to EXOSC5 (UniProt Q9NQT4), the log2 fold change was inactive: -0.009.

Consider FAM162A (UniProt Q96A26), for which the log2 fold change is inactive: 0.097.

As for EZH2 isoform 2 (UniProt Q15910), the log2 fold change is inactive: 0.015.

For the target EXOC4 (UniProt Q96A65), the log2 fold change was inactive: -0.056.

Consider EXOSC4 (UniProt Q9NPD3), for which the log2 fold change was inactive: -0.036.

With ESS2 (UniProt Q96DF8), the log2 fold change was inactive: -0.008.

Consider EXOC6 (UniProt Q8TAG9), for which the log2 fold change is inactive: -0.059.

With FADS1, A0A0A0MR51, the log2 fold change is inactive: 0.027.

For F5 (UniProt P12259), the log2 fold change was inactive: -0.004.

On to FAM207A (UniProt Q9NSI2), for which the log2 fold change is inactive: -0.013.

As to ESD (UniProt P10768), the log2 fold change was inactive: 0.029.

In the case of FAM122A (UniProt Q96E09), the log2 fold change was inactive: 0.013.

FAM114A2 (UniProt Q9NRY5): the log2 fold change was inactive: -0.121.

Take FAM136A (UniProt Q96C01): the log2 fold change is inactive: -0.023.

As to EXOC3 (UniProt O60645), the log2 fold change is inactive: -0.094.

Regarding EYA3 (UniProt Q99504), the log2 fold change is inactive: -0.045.

Take ERVK3-1, A0A0U1RQV1: the log2 fold change was inactive: 0.03.

In the case of ERLEC1 (UniProt Q96DZ1), the log2 fold change was inactive: -0.024.

In the case of ESYT1 isoform 2 (UniProt Q9BSJ8), the log2 fold change is inactive: -0.017.

Regarding FAHD1 (UniProt Q6P587), the log2 fold change was inactive: 0.016.

Turning to FAM49B (UniProt Q9NUQ9), the log2 fold change was inactive: 0.043.

Regarding FABP5 (UniProt Q01469), the log2 fold change was inactive: 0.145.

Regarding FAM83D (UniProt Q9H4H8), the log2 fold change is inactive: -0.116.

Regarding EXTL2 (UniProt Q9UBQ6), the log2 fold change is inactive: -0.02.

As to FAM118A (UniProt Q9NWS6), the log2 fold change was inactive: -0.059.

With ESYT2 (UniProt H7BXI1), the log2 fold change was inactive: -0.115.

ETFB (UniProt P38117): the log2 fold change is inactive: 0.036.

Turning to ERP29 (UniProt P30040), the log2 fold change is inactive: 0.022.

Turning to FAM50A (UniProt Q14320), the log2 fold change was inactive: -0.015.

Turning to ERICH1 (UniProt Q86X53), the log2 fold change was inactive: -0.51.

As for FAHD2A (UniProt Q96GK7), the log2 fold change is inactive: -0.003.

In the case of FAM210B (UniProt Q96KR6), the log2 fold change is inactive: 0.004.

With ETF1 (UniProt P62495), the log2 fold change was inactive: -0.027.

As to EXOSC6 (UniProt Q5RKV6), the log2 fold change was inactive: 0.009.

For the target EXOC7 (UniProt Q9UPT5), the log2 fold change is inactive: -0.03.

Compound in another experiment: Cc1cccc(CC(=O)N2CCc3c2ccc(-c2cn(C)c4ncnc(N)c24)c3F)n1
Described as above. The method in brief:
as §1
As for ETNK1 (UniProt Q9HBU6), the log2 fold change is inactive: 0.068.

Consider FAM83A (UniProt Q86UY5), for which the log2 fold change was inactive: 0.056.

In the case of FADS3 (UniProt Q9Y5Q0), the log2 fold change is inactive: -0.309.

Regarding EXOC2 (UniProt Q96KP1), the log2 fold change is inactive: 0.059.

FAM120A isoform 6 (UniProt Q9NZB2): the log2 fold change is inactive: 0.014.

Take EXOSC5 (UniProt Q9NQT4): the log2 fold change was inactive: 0.02.

As to FAM162A (UniProt Q96A26), the log2 fold change is inactive: -0.053.

With EZH2 isoform 2 (UniProt Q15910), the log2 fold change was inactive: -0.071.

For EXOC4 (UniProt Q96A65), the log2 fold change is inactive: 0.015.

For EXOSC4 (UniProt Q9NPD3), the log2 fold change was inactive: 0.017.

On to ESS2 (UniProt Q96DF8), for which the log2 fold change was inactive: 0.012.

On to EXOC6 (UniProt Q8TAG9), for which the log2 fold change was inactive: 0.033.

For the target FADS1, A0A0A0MR51, the log2 fold change is inactive: 0.083.

With F5 (UniProt P12259), the log2 fold change is inactive: 0.045.

Regarding FAM207A (UniProt Q9NSI2), the log2 fold change was inactive: -0.008.

For the target ESD (UniProt P10768), the log2 fold change is inactive: -0.04.

On to FAM122A (UniProt Q96E09), for which the log2 fold change was inactive: -0.041.

Consider FAM114A2 (UniProt Q9NRY5), for which the log2 fold change is inactive: 0.196.

Consider FAM136A (UniProt Q96C01), for which the log2 fold change is inactive: 0.

On to EXOC3 (UniProt O60645), for which the log2 fold change is inactive: 0.019.

Consider EYA3 (UniProt Q99504), for which the log2 fold change was inactive: 0.06.

Take ERVK3-1, A0A0U1RQV1: the log2 fold change is inactive: 0.097.

ERLEC1 (UniProt Q96DZ1): the log2 fold change was inactive: 0.066.

On to ESYT1 isoform 2 (UniProt Q9BSJ8), for which the log2 fold change is inactive: 0.037.

FAHD1 (UniProt Q6P587): the log2 fold change was inactive: 0.224.

For the target FAM49B (UniProt Q9NUQ9), the log2 fold change is inactive: -0.049.

For FABP5 (UniProt Q01469), the log2 fold change was inactive: -0.014.

In the case of FAM83D (UniProt Q9H4H8), the log2 fold change was inactive: 0.031.

Regarding EXTL2 (UniProt Q9UBQ6), the log2 fold change was inactive: -0.006.

Regarding FAM118A (UniProt Q9NWS6), the log2 fold change was inactive: 0.118.

As for ESYT2 (UniProt H7BXI1), the log2 fold change was inactive: 0.002.

Consider ETFB (UniProt P38117), for which the log2 fold change was inactive: 0.099.

ERP29 (UniProt P30040): the log2 fold change is inactive: -0.113.

FAM50A (UniProt Q14320): the log2 fold change is inactive: -0.048.

With ERICH1 (UniProt Q86X53), the log2 fold change was inactive: -0.008.

For the target FAHD2A (UniProt Q96GK7), the log2 fold change was inactive: 0.004.

Regarding FAM210B (UniProt Q96KR6), the log2 fold change is inactive: 0.048.

ETF1 (UniProt P62495): the log2 fold change is inactive: -0.006.

In the case of EXOSC6 (UniProt Q5RKV6), the log2 fold change is inactive: -0.003.

Regarding EXOC7 (UniProt Q9UPT5), the log2 fold change was inactive: 0.09.
